The supplement of paper PMC12823440, “Inhibitors supercharge kinase turnover through native proteolytic circuits” (Nature, 2025)
This is one part of the list. Hit calls seldom repeat between salt and free forms of one compound.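 Kinases, fused to nanoluciferase, were expressed in K562 cells; luminescence was measured every 4 h from 2 to 18 h as percent of control (DMSO = 100%, positive control = 0%). A time point is decreased if signal falls significantly (2 sigma). Hits were called by the authors by a rule that is not shown; the count of time points alone does not decide it.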

Chains of the proteins cited; added tags and fusions are not shown. Lines headed by an entry give the natural chain unless they say otherwise; changes in a name come on top.
UniProt P06241, whole entry, looked up: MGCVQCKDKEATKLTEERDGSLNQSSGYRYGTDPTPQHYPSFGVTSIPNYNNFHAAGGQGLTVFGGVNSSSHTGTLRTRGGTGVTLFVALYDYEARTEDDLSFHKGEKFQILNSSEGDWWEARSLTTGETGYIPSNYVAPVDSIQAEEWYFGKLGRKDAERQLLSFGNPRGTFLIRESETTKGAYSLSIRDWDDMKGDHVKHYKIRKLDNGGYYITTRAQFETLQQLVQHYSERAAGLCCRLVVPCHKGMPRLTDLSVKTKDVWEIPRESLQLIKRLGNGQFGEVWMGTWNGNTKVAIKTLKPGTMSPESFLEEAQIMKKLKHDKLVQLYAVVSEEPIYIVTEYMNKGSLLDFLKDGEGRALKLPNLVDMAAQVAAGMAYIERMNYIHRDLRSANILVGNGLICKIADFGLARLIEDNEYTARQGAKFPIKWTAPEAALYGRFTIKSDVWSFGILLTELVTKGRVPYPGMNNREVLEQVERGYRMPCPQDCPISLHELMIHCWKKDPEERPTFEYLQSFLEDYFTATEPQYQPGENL
UniProt Q9Y616: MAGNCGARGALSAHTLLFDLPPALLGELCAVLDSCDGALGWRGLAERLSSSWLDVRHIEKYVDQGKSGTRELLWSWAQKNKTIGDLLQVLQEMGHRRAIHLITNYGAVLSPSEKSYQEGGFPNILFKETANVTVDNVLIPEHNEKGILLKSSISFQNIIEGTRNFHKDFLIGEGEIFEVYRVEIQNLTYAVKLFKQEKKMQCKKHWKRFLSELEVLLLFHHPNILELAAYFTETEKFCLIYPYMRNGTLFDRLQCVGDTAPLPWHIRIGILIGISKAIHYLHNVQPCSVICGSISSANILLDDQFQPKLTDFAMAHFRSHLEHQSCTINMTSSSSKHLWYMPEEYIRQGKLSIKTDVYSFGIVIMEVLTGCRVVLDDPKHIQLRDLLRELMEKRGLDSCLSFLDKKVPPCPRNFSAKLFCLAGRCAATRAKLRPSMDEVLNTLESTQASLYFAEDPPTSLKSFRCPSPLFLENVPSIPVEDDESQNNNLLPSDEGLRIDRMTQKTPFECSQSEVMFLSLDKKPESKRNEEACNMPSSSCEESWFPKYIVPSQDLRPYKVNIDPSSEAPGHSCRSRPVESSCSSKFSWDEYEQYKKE
UniProt P23458: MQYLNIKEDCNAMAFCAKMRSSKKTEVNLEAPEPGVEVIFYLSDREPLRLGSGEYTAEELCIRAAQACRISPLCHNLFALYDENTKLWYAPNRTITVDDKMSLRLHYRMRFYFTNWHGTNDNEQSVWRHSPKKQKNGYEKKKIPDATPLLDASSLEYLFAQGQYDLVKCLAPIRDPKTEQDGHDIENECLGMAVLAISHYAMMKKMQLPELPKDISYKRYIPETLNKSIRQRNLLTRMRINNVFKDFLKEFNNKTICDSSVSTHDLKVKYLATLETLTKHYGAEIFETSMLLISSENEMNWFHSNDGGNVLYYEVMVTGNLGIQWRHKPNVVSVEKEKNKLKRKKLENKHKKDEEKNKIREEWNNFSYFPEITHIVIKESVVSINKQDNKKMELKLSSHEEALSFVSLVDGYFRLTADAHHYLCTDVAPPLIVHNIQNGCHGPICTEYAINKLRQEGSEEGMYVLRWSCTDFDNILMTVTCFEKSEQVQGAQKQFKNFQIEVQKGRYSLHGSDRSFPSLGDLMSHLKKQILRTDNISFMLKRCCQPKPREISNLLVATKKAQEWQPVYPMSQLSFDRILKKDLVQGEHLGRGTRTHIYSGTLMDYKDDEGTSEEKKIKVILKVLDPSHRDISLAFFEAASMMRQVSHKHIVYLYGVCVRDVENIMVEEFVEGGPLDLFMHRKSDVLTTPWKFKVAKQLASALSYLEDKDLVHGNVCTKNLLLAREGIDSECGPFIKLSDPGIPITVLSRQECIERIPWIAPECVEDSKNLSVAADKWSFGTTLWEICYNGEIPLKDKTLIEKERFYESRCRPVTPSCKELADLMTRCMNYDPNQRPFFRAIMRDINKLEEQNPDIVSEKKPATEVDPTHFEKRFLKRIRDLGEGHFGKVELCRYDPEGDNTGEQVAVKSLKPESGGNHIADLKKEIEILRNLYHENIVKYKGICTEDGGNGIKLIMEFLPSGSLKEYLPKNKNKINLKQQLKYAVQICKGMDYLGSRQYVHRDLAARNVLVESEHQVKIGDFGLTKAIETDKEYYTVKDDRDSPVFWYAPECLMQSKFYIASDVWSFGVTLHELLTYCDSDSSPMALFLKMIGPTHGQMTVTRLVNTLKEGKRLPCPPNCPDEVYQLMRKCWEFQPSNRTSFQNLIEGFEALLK
UniProt P06239: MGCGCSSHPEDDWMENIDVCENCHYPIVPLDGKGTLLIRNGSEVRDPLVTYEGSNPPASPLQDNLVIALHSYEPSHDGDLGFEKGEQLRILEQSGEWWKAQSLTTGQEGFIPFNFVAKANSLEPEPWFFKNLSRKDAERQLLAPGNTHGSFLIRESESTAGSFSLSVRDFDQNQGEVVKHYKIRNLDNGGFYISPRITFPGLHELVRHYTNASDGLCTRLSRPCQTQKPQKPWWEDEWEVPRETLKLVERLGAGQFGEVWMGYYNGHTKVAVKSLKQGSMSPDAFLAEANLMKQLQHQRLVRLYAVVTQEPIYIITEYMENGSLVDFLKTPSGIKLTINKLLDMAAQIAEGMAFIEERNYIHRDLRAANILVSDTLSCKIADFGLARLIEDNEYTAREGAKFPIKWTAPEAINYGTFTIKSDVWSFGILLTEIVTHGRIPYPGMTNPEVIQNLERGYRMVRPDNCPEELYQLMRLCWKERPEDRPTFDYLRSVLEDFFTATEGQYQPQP
UniProt P53667: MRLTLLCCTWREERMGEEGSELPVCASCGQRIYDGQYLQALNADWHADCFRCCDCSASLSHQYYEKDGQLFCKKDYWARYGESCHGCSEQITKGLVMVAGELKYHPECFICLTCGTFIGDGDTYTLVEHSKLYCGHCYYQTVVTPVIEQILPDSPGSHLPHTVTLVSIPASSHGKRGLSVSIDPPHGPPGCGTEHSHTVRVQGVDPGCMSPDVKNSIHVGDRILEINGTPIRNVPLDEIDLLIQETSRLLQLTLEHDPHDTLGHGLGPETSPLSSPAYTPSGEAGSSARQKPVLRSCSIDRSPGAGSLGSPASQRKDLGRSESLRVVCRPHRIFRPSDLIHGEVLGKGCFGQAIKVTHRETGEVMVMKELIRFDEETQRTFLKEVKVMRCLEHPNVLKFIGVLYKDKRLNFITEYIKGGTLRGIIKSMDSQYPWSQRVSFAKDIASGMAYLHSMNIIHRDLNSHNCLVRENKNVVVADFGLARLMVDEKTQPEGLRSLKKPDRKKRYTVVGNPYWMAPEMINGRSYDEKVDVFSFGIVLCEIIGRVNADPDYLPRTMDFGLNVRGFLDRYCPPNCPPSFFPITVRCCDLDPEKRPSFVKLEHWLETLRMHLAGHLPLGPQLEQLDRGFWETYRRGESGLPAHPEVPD
UniProt P53671: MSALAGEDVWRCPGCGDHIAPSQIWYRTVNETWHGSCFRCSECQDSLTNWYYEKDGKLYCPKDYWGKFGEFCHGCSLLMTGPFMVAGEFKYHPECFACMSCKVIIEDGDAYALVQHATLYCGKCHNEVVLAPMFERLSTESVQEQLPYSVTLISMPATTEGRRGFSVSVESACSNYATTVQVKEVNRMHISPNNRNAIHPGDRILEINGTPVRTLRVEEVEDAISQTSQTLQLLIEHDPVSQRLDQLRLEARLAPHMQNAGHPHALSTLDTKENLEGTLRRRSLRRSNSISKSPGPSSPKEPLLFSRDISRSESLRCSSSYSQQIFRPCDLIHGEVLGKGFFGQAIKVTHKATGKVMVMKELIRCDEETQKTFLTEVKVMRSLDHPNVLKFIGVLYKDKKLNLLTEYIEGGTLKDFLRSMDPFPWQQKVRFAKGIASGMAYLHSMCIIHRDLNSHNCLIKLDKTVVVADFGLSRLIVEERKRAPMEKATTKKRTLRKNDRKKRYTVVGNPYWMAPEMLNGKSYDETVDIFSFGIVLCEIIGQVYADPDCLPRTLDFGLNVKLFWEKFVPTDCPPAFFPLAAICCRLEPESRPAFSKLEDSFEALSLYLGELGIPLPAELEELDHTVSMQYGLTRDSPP
UniProt P07948: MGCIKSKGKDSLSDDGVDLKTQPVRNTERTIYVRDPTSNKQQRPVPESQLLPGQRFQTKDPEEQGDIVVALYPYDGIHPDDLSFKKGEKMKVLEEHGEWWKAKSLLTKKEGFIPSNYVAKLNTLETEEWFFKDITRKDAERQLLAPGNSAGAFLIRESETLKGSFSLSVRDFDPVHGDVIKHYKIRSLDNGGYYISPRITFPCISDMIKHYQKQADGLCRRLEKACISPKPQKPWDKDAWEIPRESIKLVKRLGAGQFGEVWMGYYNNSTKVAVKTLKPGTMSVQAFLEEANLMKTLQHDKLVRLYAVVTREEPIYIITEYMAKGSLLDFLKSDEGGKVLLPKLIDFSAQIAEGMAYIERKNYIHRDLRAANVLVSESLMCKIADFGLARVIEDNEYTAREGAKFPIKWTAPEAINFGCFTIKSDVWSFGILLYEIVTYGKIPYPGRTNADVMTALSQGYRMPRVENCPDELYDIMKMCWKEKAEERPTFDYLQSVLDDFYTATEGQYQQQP
UniProt Q12851: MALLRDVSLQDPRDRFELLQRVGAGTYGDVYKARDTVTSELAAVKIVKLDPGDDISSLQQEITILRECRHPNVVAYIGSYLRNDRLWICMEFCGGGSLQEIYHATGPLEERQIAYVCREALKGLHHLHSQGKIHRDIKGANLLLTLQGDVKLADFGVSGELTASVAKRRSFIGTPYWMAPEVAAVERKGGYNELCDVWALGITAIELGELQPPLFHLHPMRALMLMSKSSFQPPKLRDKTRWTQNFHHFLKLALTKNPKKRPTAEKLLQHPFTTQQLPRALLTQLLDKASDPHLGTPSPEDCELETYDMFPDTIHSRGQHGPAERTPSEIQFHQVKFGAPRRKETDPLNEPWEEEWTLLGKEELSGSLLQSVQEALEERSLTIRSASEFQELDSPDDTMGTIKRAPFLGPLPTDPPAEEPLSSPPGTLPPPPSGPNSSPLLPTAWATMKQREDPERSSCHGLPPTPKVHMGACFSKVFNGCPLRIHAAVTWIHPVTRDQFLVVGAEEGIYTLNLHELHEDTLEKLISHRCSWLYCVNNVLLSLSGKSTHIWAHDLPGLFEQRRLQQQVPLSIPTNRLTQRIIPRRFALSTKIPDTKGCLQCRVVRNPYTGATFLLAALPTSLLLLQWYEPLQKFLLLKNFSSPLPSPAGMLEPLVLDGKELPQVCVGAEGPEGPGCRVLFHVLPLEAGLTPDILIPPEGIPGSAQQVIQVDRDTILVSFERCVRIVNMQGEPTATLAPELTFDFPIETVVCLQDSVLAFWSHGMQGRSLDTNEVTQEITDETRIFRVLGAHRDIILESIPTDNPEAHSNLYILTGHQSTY
UniProt P31152, whole entry: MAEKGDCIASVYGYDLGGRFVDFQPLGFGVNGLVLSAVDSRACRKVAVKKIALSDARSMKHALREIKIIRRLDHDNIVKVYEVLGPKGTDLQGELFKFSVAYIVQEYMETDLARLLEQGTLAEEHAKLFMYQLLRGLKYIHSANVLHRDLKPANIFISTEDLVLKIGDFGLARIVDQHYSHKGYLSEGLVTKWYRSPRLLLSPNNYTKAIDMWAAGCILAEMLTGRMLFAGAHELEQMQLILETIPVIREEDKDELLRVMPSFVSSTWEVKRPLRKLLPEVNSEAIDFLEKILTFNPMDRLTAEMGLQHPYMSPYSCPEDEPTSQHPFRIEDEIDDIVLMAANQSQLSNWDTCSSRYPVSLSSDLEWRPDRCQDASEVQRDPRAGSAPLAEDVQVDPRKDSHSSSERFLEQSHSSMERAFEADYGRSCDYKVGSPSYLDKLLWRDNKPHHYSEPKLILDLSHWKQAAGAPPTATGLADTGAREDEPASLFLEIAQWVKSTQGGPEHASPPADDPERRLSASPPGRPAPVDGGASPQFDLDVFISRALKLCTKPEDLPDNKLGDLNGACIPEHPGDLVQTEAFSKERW
UniProt Q9BUB5: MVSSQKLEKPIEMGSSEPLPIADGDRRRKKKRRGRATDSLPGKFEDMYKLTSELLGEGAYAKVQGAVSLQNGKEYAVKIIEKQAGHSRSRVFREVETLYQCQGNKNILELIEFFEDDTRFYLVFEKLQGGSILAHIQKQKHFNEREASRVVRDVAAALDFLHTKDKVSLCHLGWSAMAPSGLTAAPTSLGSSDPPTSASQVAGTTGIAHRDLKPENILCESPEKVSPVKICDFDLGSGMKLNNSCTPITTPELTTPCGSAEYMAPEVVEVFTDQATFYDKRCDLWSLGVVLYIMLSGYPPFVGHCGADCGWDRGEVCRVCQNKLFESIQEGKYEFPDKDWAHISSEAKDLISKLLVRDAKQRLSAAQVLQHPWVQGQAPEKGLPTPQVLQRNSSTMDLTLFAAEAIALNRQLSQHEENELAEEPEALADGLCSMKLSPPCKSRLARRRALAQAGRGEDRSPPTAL

Assays:
Assay in all cases: number of time points (of 5) at which kinase-Nluc abundance scored as decreased, DMSO-normalised (count); higher = more persistent destabilization
Conditions in all cases: K562; 2-18 h
FLT3 = FLT3 (UniProt P36888)
FYN = FYN (UniProt P06241)
GSK3A = GSK3A (UniProt P49840)
HER2 = HER2 (UniProt P04626)
INSRR = INSRR (UniProt P14616)
IRAK3 = IRAK3 (UniProt Q9Y616)
JAK1 = JAK1 (UniProt P23458)
LCK = LCK (UniProt P06239)
LIMK1 = LIMK1 (UniProt P53667)
LIMK2 = LIMK2 (UniProt P53671)
LMTK2 = LMTK2 (UniProt Q8IWU2)
LYN = LYN (UniProt P07948)
MAP2K1 = MAP2K1 (UniProt Q02750)
MAP2K2 = MAP2K2 (UniProt P36507)
MAP4K2 = MAP4K2 (UniProt Q12851)
MAPK1 = MAPK1 (UniProt P28482)
MAPK4 = MAPK4 (UniProt P31152)
MAPKAPK2 = MAPKAPK2 (UniProt P49137)
MKNK1 = MKNK1 (UniProt Q9BUB5)
NTRK2 = NTRK2 (UniProt Q16620)

Row | SMILES | number of time points (FLT3) | number of time points (FYN) | number of time points (GSK3A) | number of time points (HER2) | number of time points (INSRR) | number of time points (IRAK3) | number of time points (JAK1) | number of time points (LCK) | number of time points (LIMK1) | number of time points (LIMK2) | number of time points (LMTK2) | number of time points (LYN) | number of time points (MAP2K1) | number of time points (MAP2K2) | number of time points (MAP4K2) | number of time points (MAPK1) | number of time points (MAPK4) | number of time points (MAPKAPK2) | number of time points (MKNK1) | number of time points (NTRK2)
1 | Nc1nc(N)c2nc(-c3cccc(O)c3)cnc2n1 (10 µM) | 0 | 0 | 0 | 0 | 0 | 0 | 0 | 0 | 0 | 0 | 0 | 0 | 0 | 0 | 0 | 0 | 0 | 0 | 0 | 0
2 | CC(C)CCNC(=O)c1ccc2c(c1)nc(Nc1n[nH]c3ccc(-c4ccccc4OC(F)(F)F)cc13)n2C1CCC(O)CC1 (stereo not drawn) [IRAK inhibitor 4 (trans)] (10 µM) | 0 | 0 | 0 | 0 | 0 | 0 | 0 | 0 | 0 | 0 | 0 | 0 | 0 | 0 | 0 | 0 | 0 | 0 | 0 | 0
3 | CC(=O)c1c(C)c2cnc(Nc3ccc(N4CCN(C(=O)CNc5cccc6c5C(=O)N(C5CCC(=O)NC5=O)C6=O)CC4)cn3)nc2n(C2CCCC2)c1=O (stereo not given) (10 µM) | 0 | 0 | 0 | 0 | 0 | 0 | 0 | 0 | 0 | 0 | 0 | 0 | 0 | 0 | 0 | 0 | 0 | 0 | 0 | 0
4 | CCN(CC)c1cc2oc(=O)c(-c3nc4ccccc4o3)cc2cc1C (2.5 µM) | 0 | 0 | 0 | 1 | 0 | 0 | 0 | 0 | 0 | 0 | 0 | 0 | 0 | 0 | 0 | 0 | 0 | 0 | 0 | 0
5 | CN1C(=O)[C@@H](NC(=O)c2n[nH]c(Cc3ccccc3)n2)COc2ccccc21 (10 µM) | 0 | 0 | 0 | 0 | 0 | 0 | 0 | 0 | 0 | 0 | 0 | 0 | 0 | 0 | 0 | 0 | 0 | 0 | 0 | 0
6 | C[C@@H]1CC(=O)c2c(ccc3c2C(=O)c2cccc(O)c2C3=O)C1 [Ochromycinone] (10 µM) | 0 | 0 | 0 | 0 | 0 | 0 | 0 | 0 | 0 | 0 | 0 | 0 | 0 | 0 | 0 | 0 | 0 | 0 | 0 | 0
7 | N[C@@H](CCC(=O)O)C(=O)N[C@@H](Cc1c[nH]c2ccccc12)C(=O)O [Oglufanide] (10 µM) | 0 | 0 | 0 | 0 | 0 | 0 | 0 | 0 | 0 | 0 | 0 | 0 | 0 | 0 | 0 | 0 | 0 | 0 | 0 | 0
8 | O=Nc1c2[nH]c3ccccc3nc-2c2ccccc12 [IQ-1S (free acid)] (2.5 µM) | 0 | 0 | 0 | 0 | 0 | 0 | 0 | 0 | 0 | 0 | 0 | 0 | 0 | 0 | 0 | 0 | 0 | 0 | 0 | 0
9 | C=CC(=O)Nc1cccc(CNc2nc(Nc3ccc(N4CCN(C)CC4)cc3OC)ncc2Cl)c1 (10 µM) | 0 | 0 | 0 | 0 | 0 | 0 | 0 | 0 | 0 | 0 | 0 | 0 | 0 | 0 | 0 | 0 | 0 | 0 | 0 | 0
10 | C=CC(=O)N1C[C@H](COc2nc(Nc3cnn(C)c3)nc3[nH]cc(Cl)c23)[C@@H](OC)C1 (2.5 µM) | 0 | 0 | 0 | 0 | 0 | 0 | 0 | 0 | 0 | 0 | 0 | 0 | 0 | 0 | 0 | 0 | 0 | 0 | 0 | 0
11 | C[C@H](NC(=O)[C@H]1NCC[C@@H]1O)c1ccc(-c2noc(CCC3CCCC3)n2)cc1 (10 µM) | 0 | 0 | 0 | 0 | 0 | 0 | 0 | 0 | 0 | 0 | 0 | 0 | 0 | 0 | 0 | 0 | 0 | 0 | 0 | 0
12 | O=C(CNc1cccc(Cl)c1)NC1CCCN(c2ncnc3[nH]ccc23)C1 (stereo not given) (10 µM) | 0 | 0 | 0 | 0 | 0 | 0 | 0 | 0 | 0 | 0 | 0 | 0 | 0 | 0 | 0 | 0 | 0 | 0 | 0 | 0
13 | CCCCCCCCCCCCCCCCOP(=O)([O-])OCC[N+](C)(C)C [Miltefosine] (10 µM) | 0 | 0 | 0 | 0 | 0 | 0 | 0 | 0 | 0 | 0 | 0 | 0 | 0 | 0 | 0 | 0 | 0 | 0 | 0 | 0
14 | Cc1cnc(NC2CCOCC2)nc1-n1cnc(C(=O)N[C@H](CN)c2cc(F)cc(Cl)c2)c1 (10 µM) | 0 | 0 | 0 | 0 | 0 | 0 | 0 | 0 | 0 | 0 | 0 | 0 | 0 | 0 | 0 | 0 | 0 | 0 | 0 | 0
15 | C=C[C@@](C)(/C=C/c1ccc(O)cc1)CCC=C(C)C [Bakuchiol] (10 µM) | 0 | 0 | 0 | 0 | 0 | 0 | 0 | 0 | 0 | 0 | 0 | 0 | 0 | 0 | 0 | 0 | 0 | 0 | 0 | 0
16 | COc1c(Nc2cc(C)[nH]n2)nc(Sc2ccc(S(=O)(=O)Cc3cccc([N+](=O)[O-])c3F)cc2F)nc1N1CCCCC1 [Centrinone-B] (2.5 µM) | 0 | 0 | 0 | 0 | 0 | 0 | 0 | 0 | 0 | 0 | 0 | 0 | 0 | 0 | 0 | 0 | 0 | 0 | 0 | 0
17 | c1cc(NC2CCNCC2)nc(-c2cnc3ccccn23)c1 [IRAK inhibitor 1] (10 µM) | 0 | 0 | 0 | 0 | 0 | 0 | 0 | 0 | 0 | 0 | 0 | 0 | 0 | 0 | 0 | 0 | 0 | 0 | 0 | 0
18 | Cn1cc(-c2c[nH]c3ncnc(N4CCOCC4)c23)cc1C#N (10 µM) | 0 | 0 | 0 | 0 | 0 | 0 | 0 | 0 | 0 | 0 | 0 | 0 | 0 | 0 | 0 | 0 | 0 | 0 | 0 | 0
19 | Cc1cc2sc(NC(=O)Cc3ccccc3)nc2cc1Cl (10 µM) | 0 | 0 | 0 | 0 | 0 | 0 | 0 | 0 | 0 | 0 | 0 | 0 | 0 | 0 | 0 | 0 | 0 | 0 | 0 | 0
20 | O=C1/C(=C\c2ccc(Cl)cc2)C=C(c2ccccc2)N1c1ccc(O)cc1 (2.5 µM) | 0 | 0 | 0 | 0 | 0 | 0 | 0 | 0 | 0 | 0 | 0 | 0 | 0 | 0 | 0 | 0 | 0 | 0 | 0 | 0
21 | CNC(=O)c1ccccc1Oc1nc(Nc2cc(OC)c(OC)c(OC)c2)ncc1Br (2.5 µM) | 0 | 0 | 0 | 0 | 0 | 0 | 0 | 0 | 0 | 0 | 0 | 0 | 0 | 0 | 0 | 0 | 0 | 0 | 0 | 0
22 | COc1ccc(N=Nc2c(N)n[nH]c2N)cc1 (10 µM) | 0 | 0 | 0 | 0 | 0 | 0 | 0 | 0 | 0 | 0 | 0 | 0 | 0 | 0 | 0 | 0 | 0 | 0 | 0 | 0
23 | COc1ccc(S(=O)(=O)NCc2ccc(C(=O)NCCc3ccc(Cl)cn3)cc2)cc1 (10 µM) | 0 | 0 | 0 | 0 | 0 | 0 | 0 | 0 | 0 | 0 | 0 | 0 | 0 | 0 | 0 | 0 | 0 | 0 | 0 | 0
24 | CCCCCCCC/C=C\CCCCCCCCCCCC(=O)O [Erucic acid] (10 µM) | 0 | 0 | 0 | 0 | 0 | 0 | 0 | 0 | 0 | 0 | 0 | 0 | 0 | 0 | 0 | 0 | 0 | 0 | 0 | 0
25 | Nc1c(C(=O)NCc2ccc(C(=O)NCCCC3CCCCC3)cc2)cnn1-c1ccccc1 (2.5 µM) | 0 | 0 | 0 | 0 | 0 | 0 | 0 | 0 | 0 | 0 | 0 | 0 | 0 | 0 | 0 | 0 | 0 | 0 | 0 | 0

Of the compounds above, 2 contain a COOH group:
Row | SMILES | number of time points (FLT3) | number of time points (FYN) | number of time points (GSK3A) | number of time points (HER2) | number of time points (INSRR) | number of time points (IRAK3) | number of time points (JAK1) | number of time points (LCK) | number of time points (LIMK1) | number of time points (LIMK2) | number of time points (LMTK2) | number of time points (LYN) | number of time points (MAP2K1) | number of time points (MAP2K2) | number of time points (MAP4K2) | number of time points (MAPK1) | number of time points (MAPK4) | number of time points (MAPKAPK2) | number of time points (MKNK1) | number of time points (NTRK2)
7 | N[C@@H](CCC(=O)O)C(=O)N[C@@H](Cc1c[nH]c2ccccc12)C(=O)O [Oglufanide] (10 µM) | 0 | 0 | 0 | 0 | 0 | 0 | 0 | 0 | 0 | 0 | 0 | 0 | 0 | 0 | 0 | 0 | 0 | 0 | 0 | 0
24 | CCCCCCCC/C=C\CCCCCCCCCCCC(=O)O [Erucic acid] (10 µM) | 0 | 0 | 0 | 0 | 0 | 0 | 0 | 0 | 0 | 0 | 0 | 0 | 0 | 0 | 0 | 0 | 0 | 0 | 0 | 0
